Reference: PubChem BioAssay AID1159584 (Peter MacCallum Cancer Centre, 2016)
Purpose: 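Genes that CDH1-null MCF10A cells selectively depend on to survive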 (primary screen). Cell system: human MCF10A breast epithelial cells, parental and CDH1-null. Reagents: siRNA against human genes. Detection: 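Cell viability by CellTiter-Glo ATP luminescence, each line scaled to the mean of mock wells across plates, then CDH1-null over parental ratio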. Scale: CDH1-null / parental viability ratio: higher = CDH1-null cells survive relatively better than parental; CDH1-null viability vs mock: higher = more viable CDH1-null cells; parental viability vs mock: higher = more viable parental cells.
Here is one part, drawn at random, of about 18,000 reagents tested. The record does not give: the amount of reagent, the time to read-out.

Target gene | CDH1-null / parental viability ratio | CDH1-null viability vs mock (fraction of mock) | parental viability vs mock (fraction of mock)
CREB5 (cAMP responsive element binding protein 5) | 0.93 | 0.84 | 0.9
TREML2 (triggering receptor expressed on myeloid cells like 2) | 1.01 | 0.75 | 0.74
TMPRSS15 (transmembrane serine protease 15) | 1.14 | 0.8 | 0.7
NIT1 (nitrilase 1) | 1.09 | 0.98 | 0.9
DDTL (D-dopachrome tautomerase like) | 0.97 | 0.76 | 0.78
RP1L1 (RP1 like 1) | 0.87 | 0.48 | 0.55
MBTD1 (mbt domain containing 1) | 1.12 | 1.15 | 1.03
LY6S-AS1 (LY6S antisense RNA 1) | 1.27 | 0.28 | 0.22
PAX5 (paired box 5) | 0.98 | 0.96 | 0.98
MYO5B (myosin VB) | 1.1 | 1.1 | 1
AIRE (autoimmune regulator) | 0.87 | 0.52 | 0.6
EVX2 (even-skipped homeobox 2) | 1.05 | 0.84 | 0.8
SYS1 (SYS1 golgi trafficking protein) | 1.1 | 0.56 | 0.51
ACSM6 (acyl-CoA synthetase medium chain family member 6) | 1.09 | 0.93 | 0.85
TLCD3A (TLC domain containing 3A) | 1.27 | 0.94 | 0.74
CARS1 (cysteinyl-tRNA synthetase 1) | 0.92 | 0.83 | 0.9
TENT4A (terminal nucleotidyltransferase 4A) | 0.99 | 0.67 | 0.68
WRN (WRN RecQ like helicase) | 0.91 | 0.62 | 0.68
GPR26 (G protein-coupled receptor 26) | 0.83 | 0.86 | 1.04
H4C12 (H4 clustered histone 12) | 0.89 | 0.64 | 0.72
GIP (gastric inhibitory polypeptide) | 1.45 | 0.96 | 0.66
NXPE2 (neurexophilin and PC-esterase domain family member 2) | 0.97 | 0.85 | 0.88
DAND5 (DAN domain BMP antagonist family member 5) | 0.94 | 0.73 | 0.78
LIPT1 (lipoyltransferase 1) | 0.99 | 0.79 | 0.8
CWF19L2 (CWF19 like cell cycle control factor 2) | 1.25 | 1.16 | 0.93
TSLIG2 (tRNA splicing ligase complex subunit 2) | 0.85 | 1.09 | 1.28
TNFRSF13C (TNF receptor superfamily member 13C) | 1.13 | 0.44 | 0.39
SPECC1 | 1.13 | 0.93 | 0.82
TRPV3 | 1.63 | 0.83 | 0.51
CLTA (clathrin light chain A) | 0.87 | 0.65 | 0.75
MDC1 (mediator of DNA damage checkpoint 1) | 0.76 | 0.56 | 0.74
KLC3 (kinesin light chain 3) | 1.17 | 1.19 | 1.02
EFNB2 (ephrin B2) | 1.03 | 0.74 | 0.72
SOD1 (superoxide dismutase 1) | 1.02 | 1.1 | 1.08
NOLC1 (nucleolar and coiled-body phosphoprotein 1) | 1.87 | 0.28 | 0.15
ARHGAP18 (Rho GTPase activating protein 18) | 0.73 | 0.44 | 0.6
KCNG3 | 1.22 | 0.96 | 0.79
ZHX1 (zinc fingers and homeoboxes 1) | 0.95 | 0.88 | 0.93
CACNG4 (calcium voltage-gated channel auxiliary subunit gamma 4) | 1.28 | 1 | 0.78
KCNMB4 | 1.15 | 1.24 | 1.08
DAGLB (diacylglycerol lipase beta) | 0.97 | 0.96 | 0.99
MYPOP (Myb related transcription factor, partner of profilin) | 1.31 | 0.85 | 0.65
MGARP (mitochondria localized glutamic acid rich protein) | 1 | 0.92 | 0.92
LPXN (leupaxin) | 0.94 | 0.84 | 0.89
AMOTL1 (angiomotin like 1) | 0.96 | 0.48 | 0.5
LPAL2 (lipoprotein(a) like 2 (pseudogene)) | 0.98 | 0.92 | 0.94
MAS1L (MAS1 proto-oncogene like, G protein-coupled receptor) | 0.89 | 0.88 | 0.99
CDY2B (chromodomain Y-linked 2B) | 1.47 | 0.66 | 0.45
H3C12 (H3 clustered histone 12) | 0.74 | 0.74 | 1
FGF20 (fibroblast growth factor 20) | 0.69 | 0.58 | 0.84
RBX1 (ring-box 1) | 0.95 | 0.93 | 0.98
LRP8 (LDL receptor related protein 8) | 0.95 | 1.04 | 1.1
DNAI7 (dynein axonemal intermediate chain 7) | 1.22 | 0.22 | 0.18
CD14 (CD14 molecule) | 1 | 0.8 | 0.8
OGFOD3 | 1.11 | 1 | 0.9
PECR (peroxisomal trans-2-enoyl-CoA reductase) | 1.04 | 1.06 | 1.02

7 entries from above, sorted by “parental viability vs mock (fraction of mock)”, ascending:
Target gene | CDH1-null / parental viability ratio | CDH1-null viability vs mock (fraction of mock) | parental viability vs mock (fraction of mock)
LY6S-AS1 (LY6S antisense RNA 1) | 1.27 | 0.28 | 0.22
SYS1 (SYS1 golgi trafficking protein) | 1.1 | 0.56 | 0.51
AIRE (autoimmune regulator) | 0.87 | 0.52 | 0.6
EVX2 (even-skipped homeobox 2) | 1.05 | 0.84 | 0.8
ACSM6 (acyl-CoA synthetase medium chain family member 6) | 1.09 | 0.93 | 0.85
PAX5 (paired box 5) | 0.98 | 0.96 | 0.98
MYO5B (myosin VB) | 1.1 | 1.1 | 1

Additional records:
Target gene | CDH1-null / parental viability ratio | CDH1-null viability vs mock (fraction of mock) | parental viability vs mock (fraction of mock)
MIGA2 (mitoguardin 2) | 0.82 | 0.64 | 0.78
C4A (complement C4A (Chido/Rodgers blood group)) | 1.31 | 0.51 | 0.39
FXYD7 (FXYD domain containing ion transport regulator 7) | 1.31 | 1.38 | 1.05
TMOD4 (tropomodulin 4) | 1.04 | 0.94 | 0.9
PSMA6 (proteasome 20S subunit alpha 6) | 1.67 | 0.5 | 0.3
RNASE6 (ribonuclease A family member 6) | 1.1 | 0.78 | 0.71
OR5P2 (olfactory receptor family 5 subfamily P member 2) | 1.19 | 0.86 | 0.72
LIN7A (lin-7 cell polarity scaffold A) | 0.81 | 0.66 | 0.81
FYRD1 (FYRN and FYRC domains INO80 complex interactor 1) | 1.49 | 0.88 | 0.59
OAZ2 (ornithine decarboxylase antizyme 2) | 0.81 | 0.79 | 0.98
ZNF184 (zinc finger protein 184) | 0.54 | 0.37 | 0.68
GCSAML (germinal center associated signaling and motility like) | 1.08 | 0.98 | 0.91
OR5T2 (olfactory receptor family 5 subfamily T member 2) | 1.18 | 0.87 | 0.74
ZNF671 (zinc finger protein 671) | 0.87 | 0.6 | 0.69
TMCO2 (transmembrane and coiled-coil domains 2) | 0.95 | 0.61 | 0.64
CYP4F2 (cytochrome P450 family 4 subfamily F member 2) | 1 | 0.98 | 0.98
NME4 (NME/NM23 nucleoside diphosphate kinase 4) | 0.85 | 0.82 | 0.97
IDNK (IDNK gluconokinase) | 0.86 | 0.76 | 0.88
IL21R (interleukin 21 receptor) | 0.99 | 0.75 | 0.76
GBP7 (guanylate binding protein 7) | 1 | 0.82 | 0.82
LCN9 (lipocalin 9) | 0.77 | 0.5 | 0.65
RGS14 (regulator of G protein signaling 14) | 1.13 | 0.61 | 0.54
H2AC20 (H2A clustered histone 20) | 1.1 | 0.88 | 0.8
PTCRA (pre T cell antigen receptor alpha) | 1.35 | 0.73 | 0.54
NFKB1 (nuclear factor kappa B subunit 1) | 0.87 | 0.74 | 0.85
ZFP36L1 (ZFP36 like 1 zinc finger CCCH-type) | 1.21 | 0.64 | 0.53
APLNR (apelin receptor) | 0.8 | 0.78 | 0.97
CLDN4 (claudin 4) | 0.89 | 0.71 | 0.8
PTPRR (protein tyrosine phosphatase receptor type R) | 1.42 | 0.88 | 0.62
PLCL1 (phospholipase C like 1 (inactive)) | 0.91 | 0.82 | 0.9
CFAP95 (cilia and flagella associated protein 95) | 0.92 | 0.8 | 0.87
